Laboratory results published in the supplement of paper PMC7877785.
± gives the uncertainty stated by the source. Many entries were measured with a wide error.

Test: self-splicing fitness, log relative to wild type (ln ratio); higher = more splicing; Tetrahymena group I intron in knt gene, E. coli kanamycin selection, DiMSum; sequences stand for … in CUCUCU…GGAGGGAAAAGUUAUCAGGCAUGCACCUGGUAGCUAGUCUUUAAACCAAUAGAUUGCAUCGGUUUAAAAGGCAAGACCGUCAAAUUGCGGGAAAGGGGUCAACAGCCGUUCAGUACCAAGUCUCAGGGGAAACUUUGAGAUGGCCUUGCAAAGGGUAUGGUAAUAAGCUGACGGACAUGGUCCUAACCACGCAGCCAAGUCCUAAGUCAACAGAUCUUCUGUUGAUAUGGAUGCAGUUCACAGACUAAAUGUCGGUCGGGGAAGAUGUAUUCUUCUCAUAAGAUAUAGUCGGACCUCUCCUUAAUGGGAGCUAGCGGAUGAAGUGAUGCAACACUGGAGCCGCUGGGAACUAAUUUGUAUGCGAAAGUAUAUUGAUUAGUUUUGGAGUACUCGUGGUCG
Method in brief: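 Fitness was computed with DiMSum as the error-weighted combination of replicate fold changes, kanamycin versus none, each normalised to wild type. The library randomised all eight intron nucleotides of the P1ex region, with the intron placed in the knt kanamycin-resistance gene on pET-22b(+) in E. coli BL21(DE3). Six replicate transformations were grown overnight at 37°C or 30°C on LB agar with or without 25 μg/mL kanamycin, plus 100 μg/mL carbenicillin, 50 μM IPTG and 0.2% rhamnose. Pooled colonies were amplicon-sequenced on an Illumina HiSeq 2500.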

| Sequence | self-splicing fitness (ln) (30 °C) | self-splicing fitness (ln) (37 °C) |
| --- | --- | --- |
| AGAUAGCAAUAUUACGUAAA | -2.53 ± 0.17 | -1.74 ± 0.14 |
| GUAGAGCAAUAUUACGCACU | -1.24 ± 0.25 | 0.332 ± 0.23 |
| UCAAAGCAAUAUUACGGCUC | -3.93 ± 0.74 | – |
| UUCGAGCAAUAUUACGCGGC | -3.76 ± 0.73 | – |
| GGAUAGCAAUAUUACGUUUC | -3.64 ± 1 | – |
| UGAGAGCAAUAUUACGGGAC | – | -1 ± 0.92 |
| GUCUAGCAAUAUUACGCGCU | -1.29 ± 0.19 | -0.353 ± 0.15 |
| UGCGAGCAAUAUUACGCUAC | -4.8 ± 1 | – |
| CAAAAGCAAUAUUACGUAAG | -0.419 ± 0.047 | 0.0644 ± 0.059 |
| UUCGAGCAAUAUUACGGGCU | -5.9 ± 1 | – |
| GCAGAGCAAUAUUACGCUCA | -1.66 ± 0.15 | -0.832 ± 0.15 |
| UUCAAGCAAUAUUACGGAAC | – | -1.36 ± 0.5 |
| GCUGAGCAAUAUUACGAAGC | -3.89 ± 1 | -2.89 ± 1.1 |
| AGGAAGCAAUAUUACGCUCC | – | -1.52 ± 0.54 |
| GGACAGCAAUAUUACGGCCC | – | -0.0592 ± 0.61 |
| UAACAGCAAUAUUACGCAAG | -2.08 ± 0.078 | -2.23 ± 0.074 |
| UUAUAGCAAUAUUACGCUGC | -2.37 ± 0.78 | – |
| AUGUAGCAAUAUUACGUCCC | -1.73 ± 0.17 | -1.02 ± 0.27 |
| CUAGAGCAAUAUUACGAGCC | -2.52 ± 0.8 | -3.4 ± 0.61 |
| GCCCAGCAAUAUUACGGCCG | – | -1.1 ± 0.92 |
| UCGAAGCAAUAUUACGCCGG | -2.32 ± 0.13 | -2.18 ± 0.19 |
| CUGUAGCAAUAUUACGCAGC | – | -3.67 ± 0.52 |
| UUGGAGCAAUAUUACGAAAA | -1.74 ± 0.84 | – |
| GGCGAGCAAUAUUACGUACG | -2.43 ± 0.18 | -1.35 ± 0.22 |
| UGGUAGCAAUAUUACGUGUC | – | -2.36 ± 0.64 |
| CCUAAGCAAUAUUACGCCGC | -1.12 ± 0.76 | -1.62 ± 1.1 |
| CAGAAGCAAUAUUACGCGUC | -3.27 ± 1.1 | – |
| GUUGAGCAAUAUUACGCCAG | 0.781 ± 1.1 | -2.03 ± 1.1 |

An excerpt of these results, with tabs.
Sequence	self-splicing fitness (ln) (30 °C)	self-splicing fitness (ln) (37 °C)
AGGAAGCAAUAUUACGCUCC	–	-1.52 ± 0.54
GGACAGCAAUAUUACGGCCC	–	-0.0592 ± 0.61

More results follow.

| Sequence | self-splicing fitness (ln) (30 °C) | self-splicing fitness (ln) (37 °C) |
| --- | --- | --- |
| UUCGAGCAAUAUUACGAUCC | – | -1.12 ± 0.52 |
| UGAGAGCAAUAUUACGCUUA | -2.73 ± 0.56 | – |
| GGUGAGCAAUAUUACGCCAC | – | -3.12 ± 1 |
| CGGUAGCAAUAUUACGAAUC | -3.09 ± 0.76 | -0.226 ± 0.52 |
| UAAGAGCAAUAUUACGAGUC | – | -3.47 ± 0.52 |
| CAUGAGCAAUAUUACGCCAA | -3.67 ± 0.41 | -2.53 ± 0.36 |
| GUGGAGCAAUAUUACGAAGA | -3.59 ± 0.6 | – |
| UUGGAGCAAUAUUACGUUCU | -4.43 ± 0.6 | – |
| UUGCAGCAAUAUUACGCGCA | -1.84 ± 0.14 | -0.231 ± 0.18 |
| UUCCAGCAAUAUUACGAAAC | – | -2.29 ± 0.35 |
| AGCGAGCAAUAUUACGCUCC | – | -1.29 ± 1.2 |
| UAAUAGCAAUAUUACGAGCC | -3.52 ± 0.75 | – |
| UUUGAGCAAUAUUACGGCUU | -2.9 ± 0.61 | -2.86 ± 0.61 |
| GCCAAGCAAUAUUACGAAAC | -2.15 ± 0.14 | -0.23 ± 0.14 |
| UCUGAGCAAUAUUACGUUCC | -2.21 ± 1.1 | -1.36 ± 0.62 |
| CUACAGCAAUAUUACGAUCG | -0.0619 ± 0.061 | 0.736 ± 0.085 |
| UCGAAGCAAUAUUACGUCCC | 0.518 ± 1.1 | -1.79 ± 1.2 |
| UGGCAGCAAUAUUACGCUCC | – | -2.9 ± 1.1 |
| GUAUAGCAAUAUUACGAUAC | -3.32 ± 0.74 | -2.34 ± 0.65 |
| CUUGAGCAAUAUUACGUACC | -2.93 ± 1.1 | -1.39 ± 0.9 |
| ACCGAGCAAUAUUACGUCCU | -1.71 ± 0.1 | -0.0861 ± 0.11 |
| CGGUAGCAAUAUUACGCGCC | -2.13 ± 0.72 | -2.76 ± 0.75 |
| ACCCAGCAAUAUUACGACGA | -0.509 ± 0.084 | -0.36 ± 0.086 |
| AGGGAGCAAUAUUACGACGA | -3.62 ± 0.55 | -1.5 ± 0.53 |
| GGAAAGCAAUAUUACGGGGC | -3.54 ± 0.28 | -0.864 ± 0.21 |
| AGGUAGCAAUAUUACGAUGA | -0.948 ± 0.016 | -0.562 ± 0.034 |
| UGGAAGCAAUAUUACGGGAC | -2.63 ± 0.21 | -3.26 ± 0.32 |

Record cards (already shown). Order of values: self-splicing fitness (ln) (30 °C) | self-splicing fitness (ln) (37 °C)
CUUGAGCAAUAUUACGUACC is listed as -2.93 ± 1.1 | -1.39 ± 0.9
UCUGAGCAAUAUUACGUUCC is listed as -2.21 ± 1.1 | -1.36 ± 0.62
